Reference: the supplement of paper PMC7661543
The effect of the compound repeats well; differences between the knockouts mostly do not.

System: SKBR3
Assay: relative cell number vs DMSO control (72 h) (% of DMSO); higher = less growth inhibition (more cells)
Protocol: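 QMAP-Seq: a pool of 5 breast cancer cell lines (ZR-75-1, SKBR3, HCC-38, MDA-MB-231, BT-20), each carrying 12 doxycycline-inducible Cas9 sgRNA perturbations (11 knockouts plus non-targeting sgNT), was treated with compounds for 72 h at four 10-fold doses (10 nM-10 uM or 1 nM-1 uM range). Barcodes were amplified and sequenced, and cell number was interpolated from 293T spike-in standard curves. The result is expressed as % of the median of DMSO wells. Two biological replicates.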

C#Cc1cccc(Nc2ncnc3cc(OCCOC)c(OCCOC)cc23)c1 [Erlotinib]
Conditions	relative cell number
sgRNA knockout: sgATF3, 10 nM	147
sgRNA knockout: sgATF3, 100 nM	98.2
sgRNA knockout: sgATF3, 1000 nM	90.3
sgRNA knockout: sgATF3, 10000 nM	44.4
sgRNA knockout: sgATF4, 10 nM	122
sgRNA knockout: sgATF4, 100 nM	89.1
sgRNA knockout: sgATF4, 1000 nM	87.34
sgRNA knockout: sgATF4, 10000 nM	33.1
sgRNA knockout: sgATF6, 10 nM	118
sgRNA knockout: sgATF6, 100 nM	96.3
sgRNA knockout: sgATF6, 1000 nM	84.6
sgRNA knockout: sgATF6, 10000 nM	29.1
sgRNA knockout: sgATG7, 10 nM	132
sgRNA knockout: sgATG7, 100 nM	87.8
sgRNA knockout: sgATG7, 1000 nM	91.56
sgRNA knockout: sgATG7, 10000 nM	47.9
sgRNA knockout: sgERN1, 10 nM	110
sgRNA knockout: sgERN1, 100 nM	84.1
sgRNA knockout: sgERN1, 1000 nM	103
sgRNA knockout: sgERN1, 10000 nM	38.1
sgRNA knockout: sgHSF1, 10 nM	107.1
sgRNA knockout: sgHSF1, 100 nM	75.6
sgRNA knockout: sgHSF1, 1000 nM	87.9
sgRNA knockout: sgHSF1, 10000 nM	36.6
sgRNA knockout: sgHSF2, 10 nM	120
sgRNA knockout: sgHSF2, 100 nM	92.6
sgRNA knockout: sgHSF2, 1000 nM	77.1
sgRNA knockout: sgHSF2, 10000 nM	33.7
sgRNA knockout: sgKEAP1, 10 nM	109
sgRNA knockout: sgKEAP1, 100 nM	83.5
sgRNA knockout: sgKEAP1, 1000 nM	85.7
sgRNA knockout: sgKEAP1, 10000 nM	35.9
sgRNA knockout: sgNFE2L2, 10 nM	110
sgRNA knockout: sgNFE2L2, 100 nM	87.3
sgRNA knockout: sgNFE2L2, 1000 nM	89.9
sgRNA knockout: sgNFE2L2, 10000 nM	35.9
sgRNA knockout: sgSLC35F2, 10 nM	99.5
sgRNA knockout: sgSLC35F2, 100 nM	89.5
sgRNA knockout: sgSLC35F2, 1000 nM	83.4
sgRNA knockout: sgSLC35F2, 10000 nM	35
sgRNA knockout: sgXBP1, 10 nM	107
sgRNA knockout: sgXBP1, 100 nM	88.8
sgRNA knockout: sgXBP1, 1000 nM	91.96
sgRNA knockout: sgXBP1, 10000 nM	40.6

Nc1ccn([C@@H]2O[C@H](CO)[C@@H](O)C2(F)F)c(=O)n1 [Gemcitabine]
Conditions	relative cell number
sgRNA knockout: sgATF3, 10 nM	24.5
sgRNA knockout: sgATF3, 100 nM	16.7
sgRNA knockout: sgATF3, 1000 nM	9.23
sgRNA knockout: sgATF3, 10000 nM	10.5
sgRNA knockout: sgATF4, 10 nM	29.9
sgRNA knockout: sgATF4, 100 nM	12
sgRNA knockout: sgATF4, 1000 nM	17.7
sgRNA knockout: sgATF4, 10000 nM	16.2
sgRNA knockout: sgATF6, 10 nM	23.9
sgRNA knockout: sgATF6, 100 nM	13.2
sgRNA knockout: sgATF6, 1000 nM	14.69
sgRNA knockout: sgATF6, 10000 nM	9.76
sgRNA knockout: sgATG7, 10 nM	25.3
sgRNA knockout: sgATG7, 100 nM	13.4
sgRNA knockout: sgATG7, 1000 nM	8.28
sgRNA knockout: sgATG7, 10000 nM	13.7
sgRNA knockout: sgERN1, 10 nM	31.9
sgRNA knockout: sgERN1, 100 nM	24.5
sgRNA knockout: sgERN1, 1000 nM	17.4
sgRNA knockout: sgERN1, 10000 nM	14.3
sgRNA knockout: sgHSF1, 10 nM	24.8
sgRNA knockout: sgHSF1, 100 nM	13.2
sgRNA knockout: sgHSF1, 1000 nM	10.9
sgRNA knockout: sgHSF1, 10000 nM	13.5
sgRNA knockout: sgHSF2, 10 nM	31.9
sgRNA knockout: sgHSF2, 100 nM	14
sgRNA knockout: sgHSF2, 1000 nM	22.3
sgRNA knockout: sgHSF2, 10000 nM	12.6
sgRNA knockout: sgKEAP1, 10 nM	21.4
sgRNA knockout: sgKEAP1, 100 nM	12.8
sgRNA knockout: sgKEAP1, 1000 nM	12.7
sgRNA knockout: sgKEAP1, 10000 nM	8.67
sgRNA knockout: sgNFE2L2, 10 nM	25.2
sgRNA knockout: sgNFE2L2, 100 nM	9.5
sgRNA knockout: sgNFE2L2, 1000 nM	13.2
sgRNA knockout: sgNFE2L2, 10000 nM	10.6
sgRNA knockout: sgSLC35F2, 10 nM	21.3
sgRNA knockout: sgSLC35F2, 100 nM	10.41
sgRNA knockout: sgSLC35F2, 1000 nM	15.1
sgRNA knockout: sgSLC35F2, 10000 nM	22.6
sgRNA knockout: sgXBP1, 10 nM	32.6
sgRNA knockout: sgXBP1, 100 nM	9.26
sgRNA knockout: sgXBP1, 1000 nM	13.3
sgRNA knockout: sgXBP1, 10000 nM	16.2

Cc1cc2c(C(C)C)c(O)c(O)c(C=O)c2c(O)c1-c1c(C)cc2c(C(C)C)c(O)c(O)c(C=O)c2c1O [Gossypol]
Conditions	relative cell number
sgRNA knockout: sgATF3, 10 nM	108
sgRNA knockout: sgATF3, 100 nM	96.1
sgRNA knockout: sgATF3, 1000 nM	129
sgRNA knockout: sgATF3, 10000 nM	33.2
sgRNA knockout: sgATF4, 10 nM	93.4
sgRNA knockout: sgATF4, 100 nM	101
sgRNA knockout: sgATF4, 1000 nM	98.9
sgRNA knockout: sgATF4, 10000 nM	24.9
sgRNA knockout: sgATF6, 10 nM	103
sgRNA knockout: sgATF6, 100 nM	89.8
sgRNA knockout: sgATF6, 1000 nM	104
sgRNA knockout: sgATF6, 10000 nM	27.3
sgRNA knockout: sgATG7, 10 nM	99.4
sgRNA knockout: sgATG7, 100 nM	105
sgRNA knockout: sgATG7, 1000 nM	86.9
sgRNA knockout: sgATG7, 10000 nM	28.8
sgRNA knockout: sgERN1, 10 nM	118
sgRNA knockout: sgERN1, 100 nM	98
sgRNA knockout: sgERN1, 1000 nM	118
sgRNA knockout: sgERN1, 10000 nM	30.8
sgRNA knockout: sgHSF1, 10 nM	103
sgRNA knockout: sgHSF1, 100 nM	86.3
sgRNA knockout: sgHSF1, 1000 nM	101.2
sgRNA knockout: sgHSF1, 10000 nM	32.9
sgRNA knockout: sgHSF2, 10 nM	84.6
sgRNA knockout: sgHSF2, 100 nM	91.6
sgRNA knockout: sgHSF2, 1000 nM	107
sgRNA knockout: sgHSF2, 10000 nM	29
sgRNA knockout: sgKEAP1, 10 nM	99.2
sgRNA knockout: sgKEAP1, 100 nM	104
sgRNA knockout: sgKEAP1, 1000 nM	121
sgRNA knockout: sgKEAP1, 10000 nM	36.9
sgRNA knockout: sgNFE2L2, 10 nM	104
sgRNA knockout: sgNFE2L2, 100 nM	82.9
sgRNA knockout: sgNFE2L2, 1000 nM	105.2
sgRNA knockout: sgNFE2L2, 10000 nM	22.7
sgRNA knockout: sgSLC35F2, 10 nM	106
sgRNA knockout: sgSLC35F2, 100 nM	107
sgRNA knockout: sgSLC35F2, 1000 nM	88.2
sgRNA knockout: sgSLC35F2, 10000 nM	25.3
sgRNA knockout: sgXBP1, 10 nM	87.5
sgRNA knockout: sgXBP1, 100 nM	98.8
sgRNA knockout: sgXBP1, 1000 nM	103
sgRNA knockout: sgXBP1, 10000 nM	30.6
